Data reported in paper PMC5112536.
These are yes or no findings as the source states them, for the method shown. Binding seen in cells or lysates may run through a third protein. For part of these data: Binding calls can cover weak binding; strength is not graded here. Tags and fused reporters may be left off the sequences shown.

By UniProt entry, the sequences of proteins in these tests, tags left out. Where a name states a change or a piece, a line headed by the entry shows the natural chain unless it says otherwise.
UniProt Q96BA8: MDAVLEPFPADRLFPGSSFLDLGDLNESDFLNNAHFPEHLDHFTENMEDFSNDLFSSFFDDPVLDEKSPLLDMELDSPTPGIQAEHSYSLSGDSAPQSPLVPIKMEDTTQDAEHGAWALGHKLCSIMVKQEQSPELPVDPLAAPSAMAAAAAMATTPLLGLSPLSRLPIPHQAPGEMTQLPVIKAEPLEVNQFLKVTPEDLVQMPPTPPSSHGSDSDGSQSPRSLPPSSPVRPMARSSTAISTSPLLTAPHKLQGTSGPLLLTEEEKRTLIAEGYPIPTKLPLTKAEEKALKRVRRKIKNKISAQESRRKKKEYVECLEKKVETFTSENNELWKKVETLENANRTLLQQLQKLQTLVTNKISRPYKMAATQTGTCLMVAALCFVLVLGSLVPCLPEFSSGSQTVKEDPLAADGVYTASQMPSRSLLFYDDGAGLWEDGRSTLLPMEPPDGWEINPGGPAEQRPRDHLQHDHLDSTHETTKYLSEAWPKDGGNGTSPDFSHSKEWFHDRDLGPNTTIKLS

T1: Myc-tagged full-length AIbZIP (human) (UniProt Q8TEY5)
T1 sequence: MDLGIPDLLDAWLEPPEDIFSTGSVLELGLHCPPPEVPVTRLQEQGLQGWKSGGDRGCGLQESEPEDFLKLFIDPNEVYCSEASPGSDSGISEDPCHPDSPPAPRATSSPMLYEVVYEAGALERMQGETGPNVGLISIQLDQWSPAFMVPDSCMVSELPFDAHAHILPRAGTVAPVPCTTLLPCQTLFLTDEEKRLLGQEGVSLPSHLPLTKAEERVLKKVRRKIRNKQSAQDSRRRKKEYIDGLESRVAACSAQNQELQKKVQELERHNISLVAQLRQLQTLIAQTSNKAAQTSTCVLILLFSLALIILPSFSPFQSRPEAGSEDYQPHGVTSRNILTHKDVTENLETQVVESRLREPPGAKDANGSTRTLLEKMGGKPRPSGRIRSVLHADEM

B1: Myc-tagged full-length AIbZIP (protein, UniProt Q8TEY5 1-395)
chain: T1 sequence

What was measured:
Test in all cases: co-IP; HEK293T cells co-transfected with the expression vectors; lysates incubated with anti-FLAG or anti-Myc antibodies overnight, protein G-agarose at 4 °C for 3 hours, washed with TNE buffer (10 mM Tris, 1 mM EDTA, 150 mM NaCl); western blot with anti-FLAG or anti-Myc
[1] = target: T1, Myc-tagged full-length AIbZIP (human)
N-terminal OASIS (human) = target: N-terminal OASIS (human)
FLAG-OASIS ΔbZIP (human) = FLAG-OASIS ΔbZIP (human) (UniProt Q96BA8)

| Molecule | binding [1] | binding (N-terminal OASIS (human)) | binding (FLAG-OASIS ΔbZIP (human)) |
| --- | --- | --- | --- |
| N-terminal OASIS (human) (domain or fragment) | binds |  |  |
| B1 |  | binds | no binding |
